Results are given in words; binding and its absence hold for the method and conditions named. Some binding calls cover weakened binding; strength is not graded here.
Target: untagged human full-length ISG15 propargylamide probe (human) (UniProt P05161)
Test: covalent activity-based probe labelling

Sequences of proteins named here, by UniProt entry; tags and fusion partners are left off. Residues count along the entry.
UniProt P05161, residues 1-157: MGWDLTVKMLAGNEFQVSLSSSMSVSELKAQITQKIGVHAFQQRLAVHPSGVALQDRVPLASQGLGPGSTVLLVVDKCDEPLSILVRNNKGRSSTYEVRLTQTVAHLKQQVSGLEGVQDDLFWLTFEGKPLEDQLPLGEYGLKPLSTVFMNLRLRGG
UniProt Q9UPU5: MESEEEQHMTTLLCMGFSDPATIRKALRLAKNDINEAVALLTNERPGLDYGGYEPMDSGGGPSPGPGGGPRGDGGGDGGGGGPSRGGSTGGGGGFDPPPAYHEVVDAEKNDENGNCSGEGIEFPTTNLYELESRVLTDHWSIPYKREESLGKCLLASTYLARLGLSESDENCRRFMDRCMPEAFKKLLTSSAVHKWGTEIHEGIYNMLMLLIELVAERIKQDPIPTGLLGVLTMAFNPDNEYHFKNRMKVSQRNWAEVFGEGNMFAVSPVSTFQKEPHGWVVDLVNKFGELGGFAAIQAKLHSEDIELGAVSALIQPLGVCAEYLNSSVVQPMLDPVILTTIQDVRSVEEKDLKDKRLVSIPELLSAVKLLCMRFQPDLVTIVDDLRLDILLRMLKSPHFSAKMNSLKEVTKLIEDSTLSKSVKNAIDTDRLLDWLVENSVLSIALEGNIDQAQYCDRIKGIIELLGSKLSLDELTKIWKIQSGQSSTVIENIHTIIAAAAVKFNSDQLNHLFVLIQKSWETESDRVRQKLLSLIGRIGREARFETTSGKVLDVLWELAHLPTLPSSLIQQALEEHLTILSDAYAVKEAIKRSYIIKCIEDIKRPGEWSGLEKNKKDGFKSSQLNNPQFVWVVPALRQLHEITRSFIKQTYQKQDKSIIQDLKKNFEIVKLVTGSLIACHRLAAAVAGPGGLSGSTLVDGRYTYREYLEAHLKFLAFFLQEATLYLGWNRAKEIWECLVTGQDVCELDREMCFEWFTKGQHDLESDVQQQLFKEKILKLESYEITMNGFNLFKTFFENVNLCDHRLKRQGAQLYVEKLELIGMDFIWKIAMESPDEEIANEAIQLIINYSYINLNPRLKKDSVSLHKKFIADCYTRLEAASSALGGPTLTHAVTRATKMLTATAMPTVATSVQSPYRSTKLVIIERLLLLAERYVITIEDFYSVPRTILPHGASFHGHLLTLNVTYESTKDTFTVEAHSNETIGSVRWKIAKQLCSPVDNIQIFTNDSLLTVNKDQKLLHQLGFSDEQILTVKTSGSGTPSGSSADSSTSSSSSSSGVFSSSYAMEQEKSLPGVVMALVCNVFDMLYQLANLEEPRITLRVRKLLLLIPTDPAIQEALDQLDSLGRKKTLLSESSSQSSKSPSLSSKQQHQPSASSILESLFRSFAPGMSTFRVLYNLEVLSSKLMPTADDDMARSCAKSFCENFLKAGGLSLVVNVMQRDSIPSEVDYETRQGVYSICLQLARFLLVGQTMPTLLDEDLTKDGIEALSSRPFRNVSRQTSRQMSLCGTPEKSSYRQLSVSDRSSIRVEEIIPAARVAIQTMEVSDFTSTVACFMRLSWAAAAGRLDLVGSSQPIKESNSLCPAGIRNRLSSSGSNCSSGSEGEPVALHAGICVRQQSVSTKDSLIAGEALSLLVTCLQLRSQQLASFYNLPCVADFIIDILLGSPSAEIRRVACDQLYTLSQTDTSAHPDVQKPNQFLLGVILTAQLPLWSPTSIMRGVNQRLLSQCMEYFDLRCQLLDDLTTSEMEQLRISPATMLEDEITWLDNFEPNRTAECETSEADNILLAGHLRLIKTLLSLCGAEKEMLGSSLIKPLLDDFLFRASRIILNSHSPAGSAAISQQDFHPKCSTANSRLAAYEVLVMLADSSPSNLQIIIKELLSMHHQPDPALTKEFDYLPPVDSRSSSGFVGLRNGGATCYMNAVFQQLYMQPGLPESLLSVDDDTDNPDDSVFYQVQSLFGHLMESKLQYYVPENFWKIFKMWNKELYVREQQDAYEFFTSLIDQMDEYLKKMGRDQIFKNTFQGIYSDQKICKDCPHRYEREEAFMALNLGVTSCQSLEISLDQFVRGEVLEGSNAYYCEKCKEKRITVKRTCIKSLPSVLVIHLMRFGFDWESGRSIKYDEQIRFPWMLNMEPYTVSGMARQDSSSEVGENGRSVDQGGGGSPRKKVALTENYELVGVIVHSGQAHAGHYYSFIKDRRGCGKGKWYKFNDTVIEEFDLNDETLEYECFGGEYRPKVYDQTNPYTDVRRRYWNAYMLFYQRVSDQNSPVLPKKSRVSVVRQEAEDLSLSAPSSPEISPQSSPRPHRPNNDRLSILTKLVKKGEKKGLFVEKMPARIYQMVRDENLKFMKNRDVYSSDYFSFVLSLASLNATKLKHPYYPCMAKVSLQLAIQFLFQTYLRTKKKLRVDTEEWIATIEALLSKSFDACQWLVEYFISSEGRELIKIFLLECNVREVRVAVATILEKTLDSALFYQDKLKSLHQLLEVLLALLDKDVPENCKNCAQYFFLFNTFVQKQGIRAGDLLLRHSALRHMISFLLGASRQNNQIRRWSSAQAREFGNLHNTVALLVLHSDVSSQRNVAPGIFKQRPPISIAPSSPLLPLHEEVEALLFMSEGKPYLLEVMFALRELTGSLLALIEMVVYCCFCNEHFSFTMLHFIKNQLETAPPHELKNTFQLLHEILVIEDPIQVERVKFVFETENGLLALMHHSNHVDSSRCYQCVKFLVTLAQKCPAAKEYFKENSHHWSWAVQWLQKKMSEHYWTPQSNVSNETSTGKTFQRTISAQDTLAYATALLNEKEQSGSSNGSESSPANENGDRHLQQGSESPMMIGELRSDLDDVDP

For “recombinant full-length human USP24 (from UniProt Q9UPU5 1-2620) (enzyme)”, the binding was “binds”.

Source: doi:10.1101/2024.09.06.611391
